Values from PubChem BioAssay AID1508597 (Cure First, 2020).
The whole screen tested about 2,100 reagents; below is a random part of them. 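Calls flag viability under 80% in either arm, not effects specific to rucaparib; the reference for percent is not stated.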 A reagent listed more than once was tested more than once; the source does not tell the runs apart. The record does not give: the 100% reference.

- Purpose: 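Knock-downs altering ovarian cancer cell survival with or without PARP inhibitor rucaparib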 (primary screen)
- Cells: human ovarian carcinoma lines grown from tumours: OCI-P5x (papillary serous) and OCI-C5x (clear cell)
- Reagents: siRNA pool against human genes, 1.25 pmol siRNA per well
- Time to read-out: 72 h or 96 h, depending on the cell culture
- Challenge: rucaparib 20 µM (about IC30) or vehicle, present until read-out
- Measured: 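ATP luminescence measured at 72 or 96 h according to the culture, then normalised and expressed as percent viability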
- Direction: viability, normalised: higher = more viable cells remaining
- Rule for the call: 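Active when normalised viability falls below 80 percent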
- Calls: active = viability under 80%; inactive = viability 80% or more

gene	rucaparib or vehicle	cell line	technical replicate	viability, normalised (%)	activity call
GFI1B (GeneID 8328)	Rucaparib	OCI-C5x (clear cell)	1	50.1	active
GFI1B (GeneID 8328)	Rucaparib	OCI-C5x (clear cell)	2	37.4	active
GFI1B (GeneID 8328)	Rucaparib	OCI-C5x (clear cell)	3	41.9	active
GFI1B (GeneID 8328)	Rucaparib	OCI-P5x (serous)	1	73.9	active
GFI1B (GeneID 8328)	Rucaparib	OCI-P5x (serous)	2	63.7	active
GFI1B (GeneID 8328)	Rucaparib	OCI-P5x (serous)	3	60.5	active
GFI1B (GeneID 8328)	Vehicle	OCI-C5x (clear cell)	1	35.4	active
GFI1B (GeneID 8328)	Vehicle	OCI-C5x (clear cell)	2	42.8	active
GFI1B (GeneID 8328)	Vehicle	OCI-C5x (clear cell)	3	53.7	active
GFI1B (GeneID 8328)	Vehicle	OCI-P5x (serous)	1	62.7	active
GFI1B (GeneID 8328)	Vehicle	OCI-P5x (serous)	2	71.1	active
GFI1B (GeneID 8328)	Vehicle	OCI-P5x (serous)	3	67.7	active
ABL1 (GeneID 25)	Rucaparib	OCI-C5x (clear cell)	1	42.5	active
ABL1 (GeneID 25)	Rucaparib	OCI-C5x (clear cell)	1	62.3	active
ABL1 (GeneID 25)	Rucaparib	OCI-C5x (clear cell)	2	80.1	inactive
ABL1 (GeneID 25)	Rucaparib	OCI-C5x (clear cell)	2	42.1	active
ABL1 (GeneID 25)	Rucaparib	OCI-C5x (clear cell)	3	62	active
ABL1 (GeneID 25)	Rucaparib	OCI-C5x (clear cell)	3	59.1	active
ABL1 (GeneID 25)	Rucaparib	OCI-P5x (serous)	1	91.6	inactive
ABL1 (GeneID 25)	Rucaparib	OCI-P5x (serous)	1	117	inactive
ABL1 (GeneID 25)	Rucaparib	OCI-P5x (serous)	2	94.4	inactive
ABL1 (GeneID 25)	Rucaparib	OCI-P5x (serous)	2	107	inactive
ABL1 (GeneID 25)	Rucaparib	OCI-P5x (serous)	3	79.5	active
ABL1 (GeneID 25)	Rucaparib	OCI-P5x (serous)	3	99.1	inactive
ABL1 (GeneID 25)	Vehicle	OCI-C5x (clear cell)	1	42.5	active
ABL1 (GeneID 25)	Vehicle	OCI-C5x (clear cell)	1	53.4	active
ABL1 (GeneID 25)	Vehicle	OCI-C5x (clear cell)	2	65.3	active
ABL1 (GeneID 25)	Vehicle	OCI-C5x (clear cell)	2	55	active
ABL1 (GeneID 25)	Vehicle	OCI-C5x (clear cell)	3	58.4	active
ABL1 (GeneID 25)	Vehicle	OCI-C5x (clear cell)	3	36.6	active
ABL1 (GeneID 25)	Vehicle	OCI-P5x (serous)	1	83.7	inactive
ABL1 (GeneID 25)	Vehicle	OCI-P5x (serous)	1	72.2	active
ABL1 (GeneID 25)	Vehicle	OCI-P5x (serous)	2	60.8	active
ABL1 (GeneID 25)	Vehicle	OCI-P5x (serous)	2	85.8	inactive
ABL1 (GeneID 25)	Vehicle	OCI-P5x (serous)	3	69.2	active
ABL1 (GeneID 25)	Vehicle	OCI-P5x (serous)	3	65.5	active

Records listed so far whose target name begins with G or g:
gene	rucaparib or vehicle	cell line	technical replicate	viability, normalised (%)	activity call
GFI1B (GeneID 8328)	Rucaparib	OCI-C5x (clear cell)	1	50.1	active
GFI1B (GeneID 8328)	Rucaparib	OCI-C5x (clear cell)	2	37.4	active
GFI1B (GeneID 8328)	Rucaparib	OCI-C5x (clear cell)	3	41.9	active
GFI1B (GeneID 8328)	Rucaparib	OCI-P5x (serous)	1	73.9	active
GFI1B (GeneID 8328)	Rucaparib	OCI-P5x (serous)	2	63.7	active
GFI1B (GeneID 8328)	Rucaparib	OCI-P5x (serous)	3	60.5	active
GFI1B (GeneID 8328)	Vehicle	OCI-C5x (clear cell)	1	35.4	active
GFI1B (GeneID 8328)	Vehicle	OCI-C5x (clear cell)	2	42.8	active
GFI1B (GeneID 8328)	Vehicle	OCI-C5x (clear cell)	3	53.7	active
GFI1B (GeneID 8328)	Vehicle	OCI-P5x (serous)	1	62.7	active
GFI1B (GeneID 8328)	Vehicle	OCI-P5x (serous)	2	71.1	active
GFI1B (GeneID 8328)	Vehicle	OCI-P5x (serous)	3	67.7	active

The listing continues:
gene	rucaparib or vehicle	cell line	technical replicate	viability, normalised (%)	activity call
NME1 (GeneID 4830)	Rucaparib	OCI-C5x (clear cell)	1	51.4	active
NME1 (GeneID 4830)	Rucaparib	OCI-C5x (clear cell)	1	67.8	active
NME1 (GeneID 4830)	Rucaparib	OCI-C5x (clear cell)	2	64.7	active
NME1 (GeneID 4830)	Rucaparib	OCI-C5x (clear cell)	2	39.2	active
NME1 (GeneID 4830)	Rucaparib	OCI-C5x (clear cell)	3	61	active
NME1 (GeneID 4830)	Rucaparib	OCI-C5x (clear cell)	3	33.6	active
NME1 (GeneID 4830)	Rucaparib	OCI-P5x (serous)	1	120	inactive
NME1 (GeneID 4830)	Rucaparib	OCI-P5x (serous)	1	45.2	active
NME1 (GeneID 4830)	Rucaparib	OCI-P5x (serous)	2	116	inactive
NME1 (GeneID 4830)	Rucaparib	OCI-P5x (serous)	2	42.4	active
NME1 (GeneID 4830)	Rucaparib	OCI-P5x (serous)	3	40	active
NME1 (GeneID 4830)	Rucaparib	OCI-P5x (serous)	3	100	inactive
NME1 (GeneID 4830)	Vehicle	OCI-C5x (clear cell)	1	44.9	active
NME1 (GeneID 4830)	Vehicle	OCI-C5x (clear cell)	1	66	active
NME1 (GeneID 4830)	Vehicle	OCI-C5x (clear cell)	2	38.8	active
NME1 (GeneID 4830)	Vehicle	OCI-C5x (clear cell)	2	66.1	active
NME1 (GeneID 4830)	Vehicle	OCI-C5x (clear cell)	3	37.1	active
NME1 (GeneID 4830)	Vehicle	OCI-C5x (clear cell)	3	52.8	active
NME1 (GeneID 4830)	Vehicle	OCI-P5x (serous)	1	82.6	inactive
NME1 (GeneID 4830)	Vehicle	OCI-P5x (serous)	1	55.7	active
NME1 (GeneID 4830)	Vehicle	OCI-P5x (serous)	2	107	inactive
NME1 (GeneID 4830)	Vehicle	OCI-P5x (serous)	2	65.7	active
NME1 (GeneID 4830)	Vehicle	OCI-P5x (serous)	3	81.6	inactive
NME1 (GeneID 4830)	Vehicle	OCI-P5x (serous)	3	126	inactive
